# According to publication PMC7819943, “Rice protein-binding microarrays: a tool to detect cis-acting elements near promoter regions in rice”:
# Amino acid sequences for entries named in this document (tags omitted).
# UniProt Q0JBA9, entry or part of it: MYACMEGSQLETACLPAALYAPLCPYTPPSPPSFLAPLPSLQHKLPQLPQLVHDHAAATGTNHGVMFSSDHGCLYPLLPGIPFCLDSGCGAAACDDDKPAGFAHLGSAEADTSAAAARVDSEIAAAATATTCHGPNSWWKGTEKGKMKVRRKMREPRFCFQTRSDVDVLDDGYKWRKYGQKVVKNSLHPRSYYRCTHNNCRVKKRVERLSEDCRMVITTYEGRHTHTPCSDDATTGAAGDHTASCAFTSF
# The list shows a part of the results.
# Molecular target: OsWRKY34 (Oryza sativa, UniProt Q0JBA9 1-250)
# Test: protein-binding microarray (RPBM); PBS, 2% BSA, 51.3 ng/ul salmon testes DNA, 50 uM zinc acetate, 200 nM TF, 25 C, 1 h; high values mean tight binding
# Settings: protein: recombinant; tags: N-terminal polyhistidine and DsRed monomer fusion (pET32a); label: CyDye5-dUTP incorporated in the synthesized complementary strand; 3' TTTTT single-stranded linker to array surface; dsDNA, one strand shown
# How it was run: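 Using Ni–NTA, transcription factors fused N-terminally to polyhistidine and DsRed were purified after expression in E. coli BL21-CodonPlus. These were incubated at 200 nM with a blocked, double-stranded custom Agilent array for 1 h at 25 °C in a buffer containing 50 µM zinc acetate, and the array was washed. The binding signal is per-feature fluorescence intensity (arbitrary units) on an Axon 4000B scanner.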
row,Sequence,binding signal
1,AACTCGGTGGTGACCACGCGTCCACATCTCTCATCTTTCTCGGAGTCACCTAGTGCAG,11000 fluorescence intensity (a.u.)
2,GATGTGCCATGACATCGCGCGTCACCTTTTTATTTTTCTCCGGAGTCACCTAGTGCAG,8140 fluorescence intensity (a.u.)
3,CGCGCCGCGCGGCGAGGGTGGTGGTGGGTGAGCGGCGAGCCGGAGTCACCTAGTGCAG,10200 fluorescence intensity (a.u.)
4,GTTCCACCATTTAATCGCGTGGGACCCACCTTGAACATAGCGGAGTCACCTAGTGCAG,8880 fluorescence intensity (a.u.)
5,TTTACTAAACTCGATCAGTTCTTCCCATATACTCTTGTGACGGAGTCACCTAGTGCAG,9070 fluorescence intensity (a.u.)
6,CCACACTGCGACGCAACTCTTGTCTCTACTGTTTTATCTCCGGAGTCACCTAGTGCAG,12800 fluorescence intensity (a.u.)
7,AACTCTTTCTGCCCACTTCCTCAACCCATGCTTATCTACCCGGAGTCACCTAGTGCAG,8240 fluorescence intensity (a.u.)
8,TGATGATGCACGCTGATTGACCGTTCTATGCAGATCCCATCGGAGTCACCTAGTGCAG,10100 fluorescence intensity (a.u.)
9,CAACCTCACCTACTTCCACTTCCTCGACACCAACGGCGTCCGGAGTCACCTAGTGCAG,9590 fluorescence intensity (a.u.)
10,ACCGTCGCTAAGAAACTCTTCCACGGCTACTTGCCTCTCTCGGAGTCACCTAGTGCAG,8380 fluorescence intensity (a.u.)
11,AGAGAGAAATATGTTTTTTTGGGTTGGGACACTTATTGAGCGGAGTCACCTAGTGCAG,9940 fluorescence intensity (a.u.)
12,GTTAGGGAGGAAGAGATGGCGACACTGTTTTGTTGGAGTCCGGAGTCACCTAGTGCAG,8460 fluorescence intensity (a.u.)
13,TCGGTACAATTCCCTACCAAGTTCATCGTATTTTTTTTTCCGGAGTCACCTAGTGCAG,9780 fluorescence intensity (a.u.)
14,CAGGAGCTTTTTCAGCCGGCATGTCTCTAATTGTCTTCCACGGAGTCACCTAGTGCAG,8110 fluorescence intensity (a.u.)
15,GCTTTTCCCACCTCAGACGCACTCCCGCGAAGTACCGTTACGGAGTCACCTAGTGCAG,8870 fluorescence intensity (a.u.)
16,GGTTGTTTTTTTTCTCTCCTTGGTATAAGTTGGTCTAGCTCGGAGTCACCTAGTGCAG,8390 fluorescence intensity (a.u.)
17,TCAGTGCTCGATGCATACCCACATGTGAAGTCTTGGATCACGGAGTCACCTAGTGCAG,8840 fluorescence intensity (a.u.)
18,TAATGTCAAACTTTTATAACTTTGACCATCAATAACTTTACGGAGTCACCTAGTGCAG,9030 fluorescence intensity (a.u.)
19,GCGGCGCTCCGCCCTCCGGTATAAACCGCGCGCCTCTCGACGGAGTCACCTAGTGCAG,8360 fluorescence intensity (a.u.)
20,CTTCCTATCGTCTTATTCAACTCTACATTTTGTTAAGAAGCGGAGTCACCTAGTGCAG,8770 fluorescence intensity (a.u.)
21,CTCGCCGGCGTCGTCTCCTCCCGCGCGCCACCCAAAAATACGGAGTCACCTAGTGCAG,8580 fluorescence intensity (a.u.)

# As entered above.
# TAATGTCAAACTTTTATAACTTTGACCATCAATAACTTTACGGAGTCACCTAGTGCAG – binding signal: 9030 fluorescence intensity (a.u.)
# CTTCCTATCGTCTTATTCAACTCTACATTTTGTTAAGAAGCGGAGTCACCTAGTGCAG – binding signal: 8770 fluorescence intensity (a.u.)

# Following part.

row,Sequence,binding signal
1,CTCTTTCACGTGTTTGACTTACATGGTTGCTTCACTTTTTCGGAGTCACCTAGTGCAG,11900 fluorescence intensity (a.u.)
2,CACTCAATTCCTTTCTCATAGTTTCCATTTTCCTTGCATCCGGAGTCACCTAGTGCAG,8670 fluorescence intensity (a.u.)
3,ATTGCCTCGTTTTTCTCTATAGACTATCTCCATGTTAGTACGGAGTCACCTAGTGCAG,8830 fluorescence intensity (a.u.)
4,GCACAACCAAAGCCACATGCTAATCACACAAGCACAACCCCGGAGTCACCTAGTGCAG,8620 fluorescence intensity (a.u.)
5,ACTGTACGTATAAATGATCCATCCTCTCCTCTTCTTCTTACGGAGTCACCTAGTGCAG,10000 fluorescence intensity (a.u.)
6,TCTGCGCGCGCCGCTGCCATTCACACGCATCGAGTAAGCTCGGAGTCACCTAGTGCAG,9510 fluorescence intensity (a.u.)
7,CTGTATTTTTTGGGAGTTTCTGACATCAATTTGCACGTTTCGGAGTCACCTAGTGCAG,8970 fluorescence intensity (a.u.)
8,GTTATTAGTCATCTGTGCTTTGGAAATTTGATCGCGTTTTCGGAGTCACCTAGTGCAG,8840 fluorescence intensity (a.u.)
9,GGAGTAGTATTTGGTTGCGATCCATATTTTTCGTAGCATTCGGAGTCACCTAGTGCAG,10100 fluorescence intensity (a.u.)
10,GTGAGGGCTAAACAGTGGGGTATATTATTAAAATTGCTCTCGGAGTCACCTAGTGCAG,9830 fluorescence intensity (a.u.)
11,TCTCTGTTCATATGCATGCATATGTCCATTCTGAATTCCTCGGAGTCACCTAGTGCAG,8850 fluorescence intensity (a.u.)
12,AGGGATACAATTTAGATTCAGTTGTCAGTTGAGGGAGTCACGGAGTCACCTAGTGCAG,9020 fluorescence intensity (a.u.)
13,AAGTCAGTTTCGATATAAGACATGGTATGTGGTGGGTCCTCGGAGTCACCTAGTGCAG,8070 fluorescence intensity (a.u.)
14,TGGGTTGGTGTAGATAATAATGTAACTGGTTCAGTTGTAGCGGAGTCACCTAGTGCAG,8830 fluorescence intensity (a.u.)
15,ATAGGACCAGAAAGCCTACACACTACTACCACGTCCATCCCGGAGTCACCTAGTGCAG,8480 fluorescence intensity (a.u.)
16,AAATCCACCACTCAAACCACCCGCAAATTCACCTTGAGTCCGGAGTCACCTAGTGCAG,8020 fluorescence intensity (a.u.)
17,GTCGCCGTCCCATCGGCCTCCGCTTGCCGCCCGCTCCGCGCGGAGTCACCTAGTGCAG,8290 fluorescence intensity (a.u.)
18,CCCTTGGGTTGGGTTGTGTTGCTCCCTCTGCTGCATTAATCGGAGTCACCTAGTGCAG,18100 fluorescence intensity (a.u.)
19,GTCGTTTTTAACCTCGCTGTAGCAAACAGTTTGGAGTTTTCGGAGTCACCTAGTGCAG,8770 fluorescence intensity (a.u.)
20,GTCTACTTCCTTTGTAATCTGTTCTCATCATCATCAATCCCGGAGTCACCTAGTGCAG,9000 fluorescence intensity (a.u.)
21,GTCTTGACTCATCCATGTACGTATGCGTATGCCACTACGACGGAGTCACCTAGTGCAG,8180 fluorescence intensity (a.u.)

row,Sequence,binding signal
1,TCTTACTGCTGGTGAAGCATACTCCTACTTGTAACATCATCGGAGTCACCTAGTGCAG,8670 fluorescence intensity (a.u.)
2,ACACATACGTATGCTACTACTTCGCTTAAGCTATCTGATTCGGAGTCACCTAGTGCAG,8350 fluorescence intensity (a.u.)
3,TCTTGACCCGCCGCTCCGACGATCTCGCGCGTACGTACGTCGGAGTCACCTAGTGCAG,8330 fluorescence intensity (a.u.)
4,CTCCCTGAGTCTAGTCCCGATCCCCACCGTTGACCGAAGTCGGAGTCACCTAGTGCAG,19900 fluorescence intensity (a.u.)
5,CTCAACTGCTATGTCACCAATGCCTACATCCGCATTGACACGGAGTCACCTAGTGCAG,9690 fluorescence intensity (a.u.)
6,TTCAGTAGCGTCGTTCGCTCCCTGGCTTCTCCATTTCTTCCGGAGTCACCTAGTGCAG,8590 fluorescence intensity (a.u.)
7,TCCTTTTGTTTTCCTATCTAATTACTTCTTATATCTATTCCGGAGTCACCTAGTGCAG,9510 fluorescence intensity (a.u.)
8,GATTGACCCGCCATACAAACTACCACTCGTTGCCAGTCACCGGAGTCACCTAGTGCAG,9360 fluorescence intensity (a.u.)
9,AGTACTGCATTACTATATAACCTTCGAATTCTCATTAACTCGGAGTCACCTAGTGCAG,8380 fluorescence intensity (a.u.)
10,ATTTCTCTGGAAGGATTGTGCTTAGTTTCTACTTTTTTTACGGAGTCACCTAGTGCAG,8320 fluorescence intensity (a.u.)
11,CTCTCATCACCTTGTGTTTCCTTCCCTTCTCACATCGAGACGGAGTCACCTAGTGCAG,8320 fluorescence intensity (a.u.)
12,GCTTTCCTTGTTTGTTCGGCCCGGATGCATTACCACTTCTCGGAGTCACCTAGTGCAG,10800 fluorescence intensity (a.u.)
13,ATTGATGAAGCATATATTGTGTCGCTGTCATTTGGTTGTTCGGAGTCACCTAGTGCAG,9080 fluorescence intensity (a.u.)
14,GGAGCTTTCAACAGGACCATTTGGGATCATTTCATATAGTCGGAGTCACCTAGTGCAG,9280 fluorescence intensity (a.u.)
15,GATCCGTCGAACAGTGAATTGCACTCTGATCTATCTTTTACGGAGTCACCTAGTGCAG,10400 fluorescence intensity (a.u.)
16,ATATATATATATATATATATATACACTATATACTATACCGCGGAGTCACCTAGTGCAG,13300 fluorescence intensity (a.u.)
17,GGTGCATCTGTGCGGTGGAGGGGCTCGGCTGGGCGGCGGCCGGAGTCACCTAGTGCAG,11600 fluorescence intensity (a.u.)
18,GAACACTTTCCTTCCCGCGCCTTTCAATTCATCCGCGCTCCGGAGTCACCTAGTGCAG,11700 fluorescence intensity (a.u.)
19,TGCTCGCCGCCGCCGCCGCCGCCGCACGCCTTCGAAGATGCGGAGTCACCTAGTGCAG,8460 fluorescence intensity (a.u.)
20,AGCATCCGCCCCTCGTTACGCACATTTTTTTATTCGAATTCGGAGTCACCTAGTGCAG,9400 fluorescence intensity (a.u.)
21,ATATCTCATACTATCTCTCTTCCGTCGTTCCGTGTTGGCCCGGAGTCACCTAGTGCAG,10900 fluorescence intensity (a.u.)

row,Sequence,binding signal
1,CATTTGTTAAGATTTCTGGCCTGTATTTTCTTGGGTTGGACGGAGTCACCTAGTGCAG,10400 fluorescence intensity (a.u.)
2,AATGTTCTTGAGGGCAAAGGGATGGACGCGGGTGTTCTACCGGAGTCACCTAGTGCAG,8050 fluorescence intensity (a.u.)
3,GGATGACATGTGGGTCCCACTTTTTGTGTGTGTGTGTGAACGGAGTCACCTAGTGCAG,10600 fluorescence intensity (a.u.)
4,CATCTGTCTCTGGATCTCTGCATATCTCCTCTTCTGTGATCGGAGTCACCTAGTGCAG,17200 fluorescence intensity (a.u.)
5,GGATAGATTGGAGTGGGTTGGGAAGGCTAATGCCCTTAGCCGGAGTCACCTAGTGCAG,8640 fluorescence intensity (a.u.)
6,AATTGACTCTTTTGCCCTTCGTTCTTATCTCCTTTGCGCTCGGAGTCACCTAGTGCAG,9720 fluorescence intensity (a.u.)
7,CCAGCAATACCCTACTCTCTCCGTCCCACTCACTAAGACACGGAGTCACCTAGTGCAG,9270 fluorescence intensity (a.u.)
8,TTGGCCATGTTAATGTTTTACTGATCATCAATTTGGTTACCGGAGTCACCTAGTGCAG,8980 fluorescence intensity (a.u.)
9,TGATGCTATGAATTGAATTAGTGATTTGACTGTTCCTTTTCGGAGTCACCTAGTGCAG,8100 fluorescence intensity (a.u.)
10,ACATCAAAATTTTCTTACACACAAACTTCTGACTTTTTTACGGAGTCACCTAGTGCAG,9430 fluorescence intensity (a.u.)
11,CCCTCTGACTCTTTGCGCCAAGTCAATCTCCCCGTCTGTCCGGAGTCACCTAGTGCAG,11700 fluorescence intensity (a.u.)
12,CGCCTTATCCTCCCGCCTTTTCACGTCCCGCCACGCCGACCGGAGTCACCTAGTGCAG,8900 fluorescence intensity (a.u.)
13,CCATTAAAGCCAAGCCACTGTCCTTGTCCATCTTTGTCCACGGAGTCACCTAGTGCAG,8190 fluorescence intensity (a.u.)
14,TTCTACATTTATTCAGTTCTATATCCGTAGGCCCTAATTGCGGAGTCACCTAGTGCAG,10000 fluorescence intensity (a.u.)
15,TCCTTTGCTACACTATATTCAAGCCATTGGTACTTATGAACGGAGTCACCTAGTGCAG,8100 fluorescence intensity (a.u.)
16,GATCACGGCGCGCCGCATCCTTCTCTCGTTGACCTAAAAACGGAGTCACCTAGTGCAG,8400 fluorescence intensity (a.u.)
17,ATTGTTACTGTTCTCGACTTCGCCGTCTCGCAAAATCCATCGGAGTCACCTAGTGCAG,14700 fluorescence intensity (a.u.)
18,TTTTCATCTGAGCTTATGTTCCAACTTTTATTTTTAATCACGGAGTCACCTAGTGCAG,8780 fluorescence intensity (a.u.)
19,GACTCTACGCTTCGTTTACTTTTTTTTTTTTTTTTGAAAACGGAGTCACCTAGTGCAG,10200 fluorescence intensity (a.u.)
20,AATTCTCTATCGCTATATTCTGCAACACACACAGTTTGCTCGGAGTCACCTAGTGCAG,8800 fluorescence intensity (a.u.)
21,AACAGTTTAGTGAGGTGGTGGGGAATCGACCTCAAATCGGCGGAGTCACCTAGTGCAG,8210 fluorescence intensity (a.u.)

# Exported with bars between the fields: entries from further up
row | Sequence | binding signal
6 | AATTGACTCTTTTGCCCTTCGTTCTTATCTCCTTTGCGCTCGGAGTCACCTAGTGCAG | 9720 fluorescence intensity (a.u.)
7 | CCAGCAATACCCTACTCTCTCCGTCCCACTCACTAAGACACGGAGTCACCTAGTGCAG | 9270 fluorescence intensity (a.u.)
8 | TTGGCCATGTTAATGTTTTACTGATCATCAATTTGGTTACCGGAGTCACCTAGTGCAG | 8980 fluorescence intensity (a.u.)
